In PubChem BioAssay AID504467 (National Center for Advancing Translational Sciences (NCATS), 2011):
Among all 330,000 compounds or so, about 7,700 (2.3%) were called active. The shares of active, inactive and inconclusive entries below differ from those in the screen. The call rests on the fitted dose curve; in most records, active means well fitted inhibition curve with a large enough effect; inconclusive means small, poorly fitted or top-dose-only effect, or effect the other way; inactive means flat fitted curve, though single readings scatter. Where the call is inconclusive, the potency comes from a doubtful curve fit.

assay: qHTS screen for small molecules that inhibit ELG1-dependent DNA repair in human embryonic kidney (HEK293T) cells expressing luciferase-tagged ELG1; details: HEK293T ELG1-luciferase reporter, luminescence, 16 h, DNA damage induced by 5-fluorouridine; series mostly up to 46.1 µM; further: nearly all actives have a fitted effect of over 55% in size
Procedure, shortened: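 Step one: seed 2,000 cells per well. Step two: pin-transfer compound or DMSO alongside 5-fluorouridine. Step three: incubate 16 hr, 37 °C, 5% CO2. Step four: add ONE-Glo, wait 30 min, read luminescence.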
Potency means the concentration at half of the fitted maximal effect.

| SMILES | Potency |
| --- | --- |
| Cc1cccc(CSc2nc3sc(C)c(C)c3c(=O)n2Cc2ccco2)c1 | inactive |
| CCS(=O)(=O)N1Cc2ccccc2CC1C(=O)Nc1nc2ccccc2s1 (centres undefined) | inconclusive: 1.84 µM [activator, full curve] |
| COc1c(C)cc(Br)cc1C(=O)Nc1cccc(-c2nc3ncccc3o2)c1 | active: 18.4 µM |
| Clc1nc2c(ccc3ccccc32)[nH]1 | inconclusive: 18.3 µM [activator, partial curve] |
| COC(=O)c1ccc(/C=N/Nc2nc(-c3ccc(C)cc3)cs2)cc1 | inconclusive: 25.9 µM [activator, partial curve, poor fit] |
| Cc1ccccc1-c1cc(C(=O)NCc2ccco2)n(CC2CC(c3cccnc3)=NO2)n1 (centres undefined) | inconclusive: 8.2 µM [inhibitor, partial curve] |
| COc1ccc(C2CC(=O)c3sc(N)nc3C2)cc1 (centres undefined) | inactive |
| CC(C)(C)n1nnnc1C(c1cccs1)N(Cc1ccccc1)Cc1ccco1 (centres undefined) | inactive |
| O=C(CCc1nnc(-c2ccc(-c3ccccc3)cc2)o1)N1CCCCC1 | inconclusive: 6.51 µM [activator, single point] |
| CCC(CO)Oc1cc(NC(=O)c2cccc(C)c2)c2ncn(C(C)C)c2c1 (centres undefined) | inconclusive: 18.3 µM [inhibitor, partial curve] |
| CC(C)Cn1cc(C(=O)N2CCC(C)CC2)c2c3ccccc3n(C)c2c1=O | inconclusive: 4.61 µM [inhibitor, full curve] |
| Cn1c(/C(C#N)=C(\O)c2ccc(S(=O)(=O)N3CCCCC3)cc2)nc2ccccc21 | inconclusive: 18.4 µM [inhibitor, single point] |
| CC(C)(C)c1ccc(C(CC(=O)O)NC(=O)Cc2ccc(Cl)cc2)cc1 (centres undefined) | inactive |
| CC(C)N(C(=O)[C@H]1C[C@H](CC(=O)NCCC2=CCCCC2)C(=O)N2CCc3c([nH]c4ccc(Cl)cc34)[C@]12C)C(C)C | inconclusive: 18.3 µM [inhibitor, single point] |
| O=C(NCc1ccc(F)cc1)c1ccc(CS(=O)(=O)Cc2ccccc2F)o1 | inconclusive: 23.1 µM [inhibitor, single point] |
| COc1ccc(C(=O)N/N=C2\SCC(=O)N2Cc2ccc3c(c2)OCO3)c(OC)c1 | inactive |
| CCCCCCCNC(=O)C1CC(=O)N(C)C(=Nc2ccc(OC)cc2)S1 (centres undefined) | inconclusive: 29.1 µM [inhibitor, single point] |
| CCCCn1nnc(NC(=O)c2ccc(-c3cccc([N+](=O)[O-])c3)o2)n1 | inconclusive: 13 µM [inhibitor, partial curve] |
| COc1ccc(S(=O)(=O)N2CCC(C(=O)N3CCc4ccccc4C3)CC2)cc1Cl | inconclusive: 18.4 µM [inhibitor, single point] |
| COc1ccc2c(c1)C(=O)N1[C@H]3c4cc(C)ccc4OC[C@@H]3[C@H](c3ccccc3)[C@]1(C)C(=O)N2 | inconclusive: 3.16 µM [inhibitor, single point] |
| CC(=O)N1CCN(C(=S)NCc2ccccc2)CC1 | inactive |
| Nc1nc(CSc2ccc(Cl)cc2)nc(N2CCCCC2)n1 | inactive |

| SMILES | Potency |
| --- | --- |
| COC(=O)c1ccc(S(=O)(=O)N2CCC(O)CC2)n1C | inconclusive: 0.103 µM [inhibitor, partial curve, poor fit] |
| CCOC(=O)/C(C#N)=C/N1CCOCC1 | inconclusive: 32.6 µM [inhibitor, partial curve, poor fit] |
| COc1cccc(CNC(=O)C(=O)NCC2CCCN2S(=O)(=O)c2cc(C)ccc2C)c1 (centres undefined) | inconclusive: 29.1 µM [inhibitor, single point] |
| Cc1ccc2nc(NC(=O)CSc3nc(=O)n(CCN(C)C)c4c3CCCC4)sc2c1 | inactive |
| O=C(CSc1ncnc2sc(-c3ccccc3)cc12)NC1CCS(=O)(=O)C1 (centres undefined) | inactive |
| CC(C)Cc1ccc(C(C)C(=O)Nc2cccnc2)cc1 (centres undefined) | inactive |
| COc1ccccc1OCC(=O)N(Cc1nc(-c2ccccc2)no1)C(C)C | inactive |
| COc1ccc(/C=C/C(=O)OCC(=O)c2ccc[nH]2)cc1 | inconclusive: 3.26 µM [activator, full curve, poor fit] |
| O=C(NCc1cccnc1)/C(=C\c1ccc(-c2ccc(Br)cc2)o1)S(=O)(=O)c1ccccc1 | active: 20.6 µM |
| O=C(NCc1ccc(F)cc1)c1cnn2ccccc12 | inconclusive: 1.64 µM [activator, full curve, poor fit] |
| CCOc1ccc(-c2nc(-c3cccs3)c(CC(=O)O)s2)cc1OC | inconclusive: 29.1 µM [activator, single point] |
| Cc1csc(NC(=O)c2ccoc2C)n1 | inconclusive: 9.2 µM [activator, partial curve] |
| Cc1ccc(C)c(NC(=S)N=Nc2c(O)n(C)c3ccc(S(=O)(=O)N4CCOCC4)cc23)c1 | inconclusive: 1.84 µM [inhibitor, partial curve, poor fit] |
| COc1ccc(NS(=O)(=O)c2cccc(NC(=O)COc3ccc(OC)cc3)c2)cc1 | inconclusive: 18.3 µM [inhibitor, single point] |
| Cc1ccc(C)c(N2CCN(C(=O)C3CCN(c4nnc(N5CCCC5=O)s4)CC3)CC2)c1 | active: 14.6 µM |
| C=CCSc1nnc(NC(=O)C23CC4CC(CC(NC(C)=O)(C4)C2)C3)s1 | inactive |
| COc1ccc(C(=O)Nc2ccc(Cl)cn2)cc1Cl | inconclusive: 11.6 µM [activator, partial curve] |
| CCc1ccc(-c2nc(CS(=O)CC(=O)NCCCN3CCC(C)CC3)c(C)o2)cc1 (centres undefined) | inconclusive: 20.6 µM [activator, single point] |
| Cc1ccc(C(=O)CCC(=O)Nc2ccccc2F)cc1 | inconclusive: 23.1 µM [activator, partial curve] |
| CCOC(=O)c1c(-c2ccccc2)nc2ccc(C)cn12 | inconclusive: 12.6 µM [activator, partial curve] |
| NS(=O)(=O)c1ccc(NC(=S)Nc2ccc(C(=O)N3CCCCC3)cc2)cc1 | inactive |
| Cc1cc(C)c(-c2cc(C(=O)Nc3cc(C)ccc3C)[nH]n2)c(O)c1 | inactive |

Three compounds from above, sorted by length of the SMILES, ascending:

| SMILES | Potency |
| --- | --- |
| Cc1csc(NC(=O)c2ccoc2C)n1 | inconclusive: 9.2 µM [activator, partial curve] |
| COc1ccc(NS(=O)(=O)c2cccc(NC(=O)COc3ccc(OC)cc3)c2)cc1 | inconclusive: 18.3 µM [inhibitor, single point] |
| Cc1ccc(C)c(NC(=S)N=Nc2c(O)n(C)c3ccc(S(=O)(=O)N4CCOCC4)cc23)c1 | inconclusive: 1.84 µM [inhibitor, partial curve, poor fit] |
